{"source": "PubChem BioAssay AID226", "about": "(DTP/NCI, 2004)", "system": "B6C3F1 mice, intracerebral ependymoblastoma, median survival T/C", "assay": "NCI In Vivo Anticancer Drug Screen. Data for tumor model Ependymoblastoma (intracerebral) in B6C3F1 mice", "conditions": "T/C endpoint: median survival time, higher T/C = longer survival", "procedure": "The antitumor activity of compounds was measured in mice bearing transplantable tumors. Survival or tumor size were measured and the results are expressed as the measurement made in the treated group (T) divided by the measurement made in the vehicle treated control group (C). The tumor model used in this assay is Ependymoblastoma (intracerebral) in B6C3F1 mice", "key": {"[1]": {"conditions": "dose: 128.0 mg/kg/injection, schedule: Q01DX005 (ip), vehicle: saline"}, "[2]": {"conditions": "dose: 0.25 mg/kg/injection, schedule: Q01DX005 (ip), vehicle: saline"}, "[3]": {"conditions": "dose: 0.5 mg/kg/injection, schedule: Q01DX005 (ip), vehicle: saline"}, "[4]": {"conditions": "dose: 2.0 mg/kg/injection, schedule: Q01DX005 (ip), vehicle: saline"}, "[5]": {"conditions": "dose: 150.0 mg/kg/injection, schedule: Q01DX005 (ip), vehicle: Klucel (hydroxypropylcellulose) (HPC)"}, "[6]": {"conditions": "dose: 100.0 mg/kg/injection, schedule: Q01DX005 (ip), vehicle: saline with Tween-80"}, "[7]": {"conditions": "dose: 200.0 mg/kg/injection, schedule: Q01DX005 (ip), vehicle: saline with Tween-80"}}, "note": "The list is a part of this screen's results and no random one: it gathers tests that were run many times, whatever their T/C, doses with no T/C, and many T/C values between a quarter and a half above the control. Other doses and runs of a compound stand elsewhere. T/C is the treated group as % of the vehicle group. Some doses have a count of surviving animals in place of a T/C: the source files T/C as zero there, which appears to mark a toxic dose or a test without result, not a measured value. Some survivor counts are full or nearly so, which does not show that the dose was tolerated: survival well below the control is almost never listed, so the zero probably covers shortened survival too. Counts of survivors are from the toxicity check (mostly the fifth day) where no day follows; animals may have died later. Schedule codes are those of the source, taken here to give the interval after Q, in days (D) or hours (H), and the number of doses after X. Additions like (4×) give the number of equal values in this list. Some doses were run more than once; their values stand side by side, smallest first. Where survival is the endpoint, the PubChem record calls one and a half times the control and up active, and a quarter to a half above the control has no call in these data; cut-offs in other NCI protocols can differ. Some T/C values carry the count of animals alive at the toxicity check (mostly the fifth day); where none is given, no animal had died by that day."}
{"molecule": "C[CH2][Ge]1([CH2]C)[CH2]CC2(CCN(CCCN(C)C)C2)C[CH2]1", "values": [{"measurement": "T/C", "setting": "dose: 32.0 mg/kg/injection, schedule: Q01DX005 (ip), vehicle: saline, evaluated on day 45", "result": "105 and 111 % of control"}, {"measurement": "T/C", "setting": "dose: 32.0 mg/kg/injection, schedule: Q01DX005 (ip), vehicle: saline, evaluated on day 60", "result": "103 [8 of 10 alive], 108, 115, 118 % of control"}, {"measurement": "T/C", "setting": "dose: 64.0 mg/kg/injection, schedule: Q01DX005 (ip), vehicle: saline, evaluated on day 45", "result": "96 and 111 % of control"}, {"measurement": "T/C", "setting": "dose: 64.0 mg/kg/injection, schedule: Q01DX005 (ip), vehicle: saline, evaluated on day 60", "result": "94 [7 of 10 alive], 103, 103 [8 of 10 alive], 107 % of control [9 of 10 alive]"}, {"measurement": "survivor count", "setting": "[1]", "result": "0 of 10, 1 of 10, 2 of 10, 4 of 10"}, {"measurement": "survivor count", "setting": "dose: 256.0 mg/kg/injection, schedule: Q01DX005 (ip), vehicle: saline", "result": "0 of 10 (2×)"}, {"measurement": "survivor count", "setting": "dose: 512.0 mg/kg/injection, schedule: Q01DX005 (ip), vehicle: saline", "result": "0 of 10 (2×)"}]}
{"molecule": "[N-]=[N+]=CC(=O)CCC(N)C(=O)O", "note": "(centres undefined)", "values": [{"measurement": "T/C", "setting": "[2]", "result": "94, 98 [7 of 10 alive], 122 % of control"}, {"measurement": "survivor count", "setting": "[2]", "result": "8 of 10"}, {"measurement": "survivor count", "setting": "dose: 0.4 mg/kg/injection, schedule: Q01DX005 (ip), vehicle: saline", "result": "10 of 10"}, {"measurement": "T/C", "setting": "[3]", "result": "89 and 111 % of control"}, {"measurement": "survivor count", "setting": "[3]", "result": "6 of 10 and 8 of 10"}, {"measurement": "survivor count", "setting": "dose: 0.8 mg/kg/injection, schedule: Q01DX005 (ip), vehicle: saline", "result": "10 of 10"}, {"measurement": "survivor count", "setting": "dose: 1.0 mg/kg/injection, schedule: Q01DX005 (ip), vehicle: saline", "result": "5 of 10, 9 of 10, 10 of 10 (2×)"}, {"measurement": "survivor count", "setting": "[4]", "result": "6 of 10 and 9 of 10"}, {"measurement": "survivor count", "setting": "dose: 4.0 mg/kg/injection, schedule: Q01DX005 (ip), vehicle: saline", "result": "1 of 10 and 5 of 10"}]}
{"molecule": "Nc1nc(=S)c2ncn(C3OC(COC(=O)c4ccc(Cl)cc4)C(OC(=O)c4ccc(Cl)cc4)C3OC(=O)c3ccc(Cl)cc3)c2[nH]1", "note": "(centres undefined)", "values": [{"measurement": "T/C", "setting": "dose: 18.75 mg/kg/injection, schedule: Q01DX005 (ip), vehicle: Klucel (hydroxypropylcellulose) (HPC)", "result": "134 % of control [9 of 10 alive]"}, {"measurement": "T/C", "setting": "dose: 37.5 mg/kg/injection, schedule: Q01DX005 (ip), vehicle: Klucel (hydroxypropylcellulose) (HPC)", "result": "130 % of control"}, {"measurement": "T/C", "setting": "[5]", "result": "125 % of control"}, {"measurement": "survivor count", "setting": "[5]", "result": "10 of 10"}]}
{"molecule": "CN(CO)c1nc(N(C)CO)nc(N(C)CO)n1", "values": [{"measurement": "T/C", "setting": "dose: 1.56 mg/kg/injection, schedule: Q01DX005 (ip), vehicle: saline with Tween-80", "result": "131 % of control"}, {"measurement": "T/C", "setting": "dose: 6.25 mg/kg/injection, schedule: Q01DX005 (ip), vehicle: saline with Tween-80", "result": "98, 102, 106, 107 % of control"}, {"measurement": "T/C", "setting": "dose: 12.5 mg/kg/injection, schedule: Q01DX005 (ip), vehicle: saline with Tween-80", "result": "101, 109, 114, 122 % of control"}, {"measurement": "T/C", "setting": "dose: 12.5 mg/kg/injection, schedule: Q01DX009 (ip), vehicle: Klucel (hydroxypropylcellulose) (HPC)", "result": "125 % of control"}, {"measurement": "T/C", "setting": "dose: 25.0 mg/kg/injection, schedule: Q01DX005 (ip), vehicle: saline with Tween-80", "result": "108, 109, 113, 118 % of control"}, {"measurement": "T/C", "setting": "dose: 50.0 mg/kg/injection, schedule: Q01DX005 (ip), vehicle: saline with Tween-80", "result": "101, 113, 114, 116 % of control"}, {"measurement": "survivor count", "setting": "[6]", "result": "7 of 10"}, {"measurement": "survivor count", "setting": "[7]", "result": "0 of 10"}, {"measurement": "survivor count", "setting": "dose: 400.0 mg/kg/injection, schedule: Q01DX005 (ip), vehicle: saline with Tween-80", "result": "0 of 10"}, {"measurement": "survivor count", "setting": "dose: 800.0 mg/kg/injection, schedule: Q01DX005 (ip), vehicle: saline with Tween-80", "result": "0 of 10"}]}
{"molecule": "COc1cccc2c1C(=O)c1c(O)c3c(c(O)c1C2=O)C[C@@](O)(C(=O)CO)C[C@@H]3OC1CC(N)C(O)C(C)O1", "note": "(some centres undefined)", "values": [{"measurement": "T/C", "setting": "dose: 0.5 mg/kg/injection, schedule: Q03HX008 (ip), vehicle: saline", "result": "127 % of control"}, {"measurement": "survivor count", "setting": "dose: 1.0 mg/kg/injection, schedule: Q03HX008 (ip), vehicle: saline", "result": "10 of 10"}, {"measurement": "T/C", "setting": "[4]", "result": "132 % of control"}, {"measurement": "survivor count", "setting": "dose: 2.0 mg/kg/injection, schedule: Q03HX008 (ip), vehicle: saline", "result": "4 of 10 and 8 of 10"}, {"measurement": "survivor count", "setting": "dose: 4.0 mg/kg/injection, schedule: Q01DX005 (ip), vehicle: suspension in saline", "result": "10 of 10"}, {"measurement": "survivor count", "setting": "dose: 4.0 mg/kg/injection, schedule: Q01DX005 (ip), vehicle: water", "result": "9 of 10 and 10 of 10"}, {"measurement": "survivor count", "setting": "dose: 8.0 mg/kg/injection, schedule: Q01DX005 (ip), vehicle: saline", "result": "10 of 10 (2×)"}, {"measurement": "survivor count", "setting": "dose: 8.0 mg/kg/injection, schedule: Q01DX005 (ip), vehicle: water", "result": "7 of 10 and 9 of 10"}, {"measurement": "survivor count", "setting": "dose: 16.0 mg/kg/injection, schedule: Q01DX005 (ip), vehicle: saline", "result": "7 of 10"}, {"measurement": "survivor count", "setting": "dose: 16.0 mg/kg/injection, schedule: Q01DX005 (ip), vehicle: water", "result": "1 of 10"}, {"measurement": "survivor count", "setting": "dose: 32.0 mg/kg/injection, schedule: Q01DX005 (ip), vehicle: water", "result": "0 of 10"}]}
{"molecule": "CCCC(=O)OCC1OC(n2cnc3c(=S)nc[nH]c32)C(OC(=O)CCC)C1OC(=O)CCC", "note": "(centres undefined)", "values": [{"measurement": "survivor count", "setting": "[6]", "result": "10 of 10"}, {"measurement": "survivor count", "setting": "[7]", "result": "10 of 10"}]}
{"molecule": "COc1ccc(CC2C(=O)NC(C)C(=O)N(C)C3C(=O)N(C)C(Cc4ccc(O)c(c4)Oc4ccc(cc4)C3O)C(=O)NC(C)C(=O)NC(C)C(=O)N2C)cc1", "note": "(centres undefined)", "values": [{"measurement": "survivor count", "setting": "dose: 4.0 mg/kg/injection, schedule: Q01DX005 (ip), vehicle: Klucel (hydroxypropylcellulose) (HPC)", "result": "0 of 10"}]}
{"molecule": "CCN(CC)CCOc1ccc(/C(=C(\\Cl)c2ccccc2)c2ccccc2)cc1", "values": [{"measurement": "survivor count", "setting": "[1]", "result": "3 of 10 and 8 of 10"}]}
{"molecule": "CN(C)CC(=O)c1ccc(O)c(O)c1", "values": [{"measurement": "T/C", "setting": "dose: 100.0 mg/kg/injection, schedule: Q01DX001 (ip), vehicle: saline", "result": "100, 103 [survivors not given], 104 [survivors not given], 112 % of control [survivors not given]"}, {"measurement": "T/C", "setting": "dose: 200.0 mg/kg/injection, schedule: Q01DX001 (ip), vehicle: saline", "result": "94 [survivors not given], 100 [survivors not given], 102, 106 % of control [survivors not given]"}, {"measurement": "T/C", "setting": "dose: 400.0 mg/kg/injection, schedule: Q01DX001 (ip), vehicle: saline", "result": "88, 88 [survivors not given], 105 [survivors not given], 106 % of control [survivors not given]"}, {"measurement": "T/C", "setting": "dose: 800.0 mg/kg/injection, schedule: Q01DX001 (ip), vehicle: saline", "result": "98, 98 [survivors not given], 102 [survivors not given], 109 % of control [survivors not given]"}]}
